# Source: PubChem BioAssay AID504467 (National Center for Advancing Translational Sciences (NCATS), 2011)
# Out of some 330,000 compounds screened, about 7,700 (2.3%) were called active. The inconclusive results got no clear call from the source; some entries with a clear call stand among them for comparison. Calls come from the whole dose curve; as a rule, active = well fitted inhibition curve with a large enough effect; inconclusive = small, poorly fitted or top-dose-only effect, or effect the other way; inactive = flat fitted curve, though single readings scatter. Potencies beside an inconclusive call are fits to weak or partial responses and may not hold up.
# Experiment: qHTS screen for small molecules that inhibit ELG1-dependent DNA repair in human embryonic kidney (HEK293T) cells expressing luciferase-tagged ELG1; note: nearly all actives have a fitted effect of over 55% in size
# Settings: HEK293T ELG1-luciferase reporter, luminescence, 16 h, DNA damage induced by 5-fluorouridine; series mostly up to 46.1 µM
# Outline: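 HEK293T cells expressing luciferase-tagged ELG1 (2,000/well) received 5-Fluorouridine plus compound or DMSO for 16 hr at 37 °C. Luciferase was read by ONE-Glo luminescence after 30 min at room temperature.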
# Potency is the fitted concentration of half-maximal effect.
row,Structure (SMILES),Potency
1,CN(C(=O)C1CCCO1)c1nnc(-c2ccccn2)s1 (stereo unspecified),"inconclusive: 20.6 µM [activator, partial curve]"
2,CC(=O)c1c(C)[nH]c(C(=O)Nc2ccc(C)c(S(=O)(=O)Nc3ccc(C)cc3C)c2)c1C,"inconclusive: 18.3 µM [inhibitor, single point]"
3,CC(=O)c1sc2nc(-c3cccs3)ccc2c1N,"inconclusive: 10.3 µM [activator, partial curve]"
4,O=C(C1CCCCN1S(=O)(=O)c1ccc(F)cc1)N1CCN(c2ccccc2F)CC1 (stereo unspecified),inactive
5,CCC(CC)C(=O)N1CC(=O)Nc2ccc(F)cc2C1c1ccccc1 (stereo unspecified),"inconclusive: 0.231 µM [inhibitor, single point]"
6,COc1ccc(-c2nn(-c3ccccc3)cc2C2CC(c3cccs3)=NN2C(=O)CCCC(=O)O)cc1 (stereo unspecified),"inconclusive: 11.6 µM [activator, partial curve, poor fit]"
7,CC1CCc2nc3sc4c(c3c(N)c2C1)CCCC4 (stereo unspecified),"inconclusive: 5.17 µM [activator, partial curve]"
8,Cc1cc(OCC(=O)NCCc2cccc(F)c2)c2c(C)cc(=O)oc2c1,inactive
9,CCOc1ccc(C(C(=O)NCC2CCCO2)N(Cc2cccc(OC)c2)C(=O)c2snc(C(N)=O)c2N)cc1 (stereo unspecified),"inconclusive: 20.6 µM [inhibitor, single point]"
10,Cc1ccc(C)c(NC(=O)CN(C)C(=O)c2cccc(S(=O)(=O)N3CCN(Cc4ccccc4)CC3)c2)c1,"inconclusive: 7.3 µM [inhibitor, partial curve, poor fit]"
11,CC1(C)Cc2c(sc3c2c(=N)n(Cc2ccco2)c(=O)n3CC(=O)Nc2ccccc2)CO1,active: 9.2 µM
12,CCN(CCCNC(=O)C1CCC(=O)N1Cc1ccc(C)cc1)c1cccc(C)c1 (stereo unspecified),inactive
13,COc1ccc(C(=O)C2CCCN(Cc3sc(N4CCCC4)nc3Cl)C2)c(OC)c1 (stereo unspecified),"inconclusive: 23.1 µM [inhibitor, single point]"
14,Cc1noc(C)c1NC(=O)Nc1ccc2c(c1)C(=O)N([C@H](C)CO)C[C@H](C)[C@@H](CN(C)C(=O)Nc1ccc3c(c1)OCO3)O2,"inconclusive: 18.3 µM [activator, single point]"
15,CC1CCCN(C(=O)CSc2nnc3n(C4CCCC4)c(=O)c4ccccc4n23)C1 (stereo unspecified),active: 9.2 µM
16,OCCSc1nc2ccccc2n1CCOc1ccccc1,"inconclusive: 23.1 µM [activator, single point]"
17,COc1ccc(C2/C=C\CN(S(=O)(=O)c3cccc4cccnc34)CC(=O)N2Cc2ccc(F)cc2)cc1 (stereo unspecified),"inconclusive: 16.4 µM [inhibitor, single point]"
18,CC(C)C(C(=O)O)N1CCS(=O)(=O)CC1 (stereo unspecified),inactive
19,Cc1cc(OCC(=O)Nc2ncn[nH]2)ccc1Cl,"inconclusive: 23.1 µM [activator, partial curve, poor fit]"
20,C/C(=N\NC(=O)c1nnn(-c2nonc2N)c1CN1CCc2ccccc21)c1ccccc1O,"inconclusive: 1.64 µM [inhibitor, full curve]"
21,CCCCn1c(=N)n(CC(O)COc2cccc(C)c2)c2ccccc21 (stereo unspecified),"inconclusive: 16.4 µM [inhibitor, partial curve]"
22,N#Cc1cnc(Nc2nc3ccccc3o2)nc1-c1ccccc1,inactive

row,Structure (SMILES),Potency
1,Cc1cc(N)n(-c2ccc(S(=O)(=O)c3ccc(C(C)C)cc3)cc2)n1,"inconclusive: 6.51 µM [inhibitor, partial curve, poor fit]"
2,CCOC(=O)Nc1ccc2c(c1)N(CCCN(C)C)c1ccccc1CC2,"inconclusive: 23.1 µM [activator, partial curve, poor fit]"
3,CCS(=O)(=O)NCCc1csc(-c2ccccc2)n1,"inconclusive: 5.8 µM [activator, full curve]"
4,O=C(Cc1ccc(Cl)c(Cl)c1)NC1CCCCCC1,"inconclusive: 14.6 µM [activator, partial curve]"
5,Cc1ccc(-c2c[n+](CC(=O)N3c4ccccc4Sc4ccccc43)c3n2CCC3)cc1,"inconclusive: 32.6 µM [inhibitor, partial curve, poor fit]"
6,O=C(c1ccc(Cn2c(=O)[nH]c3ccccc3c2=O)cc1)N1CCN(c2ccc(Cl)cc2)CC1,active: 23.1 µM
7,O=C(CCSc1nc(-c2ccco2)cc(C(F)(F)F)n1)NCCc1ccccc1,"inconclusive: 6.51 µM [activator, full curve]"
8,O=C(CCCC(=O)N(c1ccc2c(c1)OCCO2)C(C(=O)NC1CCCCC1)c1ccc(F)cc1)Nc1ccccn1 (stereo unspecified),"inconclusive: 5.62 µM [inhibitor, single point]"
9,COc1ccc(NC(=S)N(Cc2ccc(Cl)cc2)Cc2ccc(C(=O)O)cc2)cc1Cl,inactive
10,Cn1c(=O)c2c(SCc3ccccc3)nc(-c3ccco3)nc2n(C)c1=O,"inconclusive: 32.6 µM [activator, partial curve, poor fit]"
11,COc1ccc(OC)c(NC(=O)CN2c3cccc4cccc(c34)S2(=O)=O)c1,"inconclusive: 6.51 µM [inhibitor, single point]"
12,COc1ccc(CCNC(=S)NC(=O)c2c(-c3ccccc3Cl)noc2C)cc1OC,inactive
13,COc1ccc(CNc2nc(NCc3ccc(OC)cc3)c3[nH]cnc3n2)cc1,inactive
14,O=C(O)CCn1cc(/C=C2\SC(=S)NC2=O)c(-c2ccccc2)n1,inactive
15,O=C(Nc1nc2c(s1)CCCC2)C1COc2ccccc2O1 (stereo unspecified),"inconclusive: 0.517 µM [activator, full curve]"
16,Cc1ccc(-n2c(SCC(=O)N/N=C/c3ccc(C)s3)nnc2-c2ccccc2)cc1,"inconclusive: 29.1 µM [inhibitor, single point]"
17,CCC(c1nnnn1Cc1ccc2c(c1)OCO2)N1CCN(c2ccc(OC)cc2)CC1 (stereo unspecified),"inconclusive: 35.5 µM [inhibitor, single point]"
18,O=C(COC(=O)c1cc[n+]([O-])cc1)Nc1ccc(SC(F)F)cc1,"inconclusive: 23.1 µM [activator, single point]"
19,O=C(NCc1ccccc1Br)c1cccc2c1C(=O)c1ccc(N3CCC(Cc4ccccc4)CC3)cc1S2(=O)=O,inactive
20,C(=C\n1nnc2ccccc21)/c1ccc[nH]1,"inconclusive: 23.1 µM [activator, single point]"
21,O=C(NCc1ccccc1)C(=O)Nc1nc(C23CC4CC(CC(C4)C2)C3)cs1,"inconclusive: 14.6 µM [inhibitor, partial curve, poor fit]"
22,Cc1c(OCc2nn[nH]n2)ccc2c3c(c(=O)oc12)CCCC3,inactive

# Random excerpt: 3 entries already listed.
row,Structure (SMILES),Potency
15,CC1CCCN(C(=O)CSc2nnc3n(C4CCCC4)c(=O)c4ccccc4n23)C1 (stereo unspecified),active: 9.2 µM
5,Cc1ccc(-c2c[n+](CC(=O)N3c4ccccc4Sc4ccccc43)c3n2CCC3)cc1,"inconclusive: 32.6 µM [inhibitor, partial curve, poor fit]"
4,O=C(C1CCCCN1S(=O)(=O)c1ccc(F)cc1)N1CCN(c2ccccc2F)CC1 (stereo unspecified),inactive

# Continued.

row,Structure (SMILES),Potency
1,O=C1c2cc([N+](=O)[O-])cc3cc([N+](=O)[O-])cc(c23)C(=O)N1c1ccccn1,"inconclusive: 32.6 µM [inhibitor, partial curve, poor fit]"
2,COc1ccccc1-c1oc2ccccc2c1C#CC1(N)CCCCC1,"inconclusive: 0.73 µM [inhibitor, partial curve, poor fit]"
3,S=C(Sc1ccc(Cl)cc1)Sc1ccc(Cl)cc1,"inconclusive: 18.3 µM [inhibitor, single point]"
4,Clc1cnc(N/N=C/c2ccncc2)c(Cl)c1,"inconclusive: 18.3 µM [activator, single point]"
5,Cn1cnc([N+](=O)[O-])c1Oc1cccc2ccccc12,inactive
6,COc1ccccc1N1CCN(c2cc(=O)n(Cc3ccc(F)cc3)c(=O)[nH]2)CC1,inactive
7,O=C(Cc1ccc(Br)cc1)Nc1ccc(S(=O)(=O)Nc2ncccn2)cc1,inactive
8,Cc1ccc(C)c(N2CCN(C(=O)C3CCCN(S(=O)(=O)c4c(C)noc4C)C3)CC2)c1 (stereo unspecified),active: 14.6 µM
9,COCCN(C(=O)c1ccccc1OC)c1nnc(C)s1,"inconclusive: 29.1 µM [inhibitor, single point]"
10,CC(C)c1nnc(SCC(=O)Nc2ccc3c(c2)OCCO3)n1C,inactive
11,O=C(NCCc1ccccc1)c1ccc(-n2cnnn2)cc1,"inconclusive: 23.1 µM [activator, partial curve]"
12,COc1ccc([C@@H]2CC=C(C(=O)O)[C@H](c3ccc(F)cc3)N2S(=O)(=O)c2ccc(Cl)cc2)cc1,inactive
13,Cc1cc2cc(C)c3nnc(SCC(=O)Nc4ccc(S(=O)(=O)N5CCCCC5C)cc4)n3c2cc1C (stereo unspecified),"inconclusive: 4.61 µM [inhibitor, full curve]"
14,Nc1c(N(Cc2ccco2)C(=O)c2cccc(Cl)c2)c(=O)[nH]c(=O)n1Cc1ccccc1,inactive
15,O=C(Nc1nc2ccccc2[nH]1)c1cc(F)cc(F)c1,"inconclusive: 2.31 µM [activator, full curve]"
16,COc1cc(/C=N/NC(=O)CN(CCc2ccccc2)S(=O)(=O)c2ccc(NC(C)=O)cc2)cc(OC)c1OC,"inconclusive: 13 µM [inhibitor, partial curve]"
17,COc1ccccc1NC(=O)C(C)Sc1nccn1C (stereo unspecified),"inconclusive: 23.1 µM [activator, partial curve, poor fit]"
18,CCC1Oc2ccccc2C(=O)N(CC(=O)c2ccc3c(c2)OCCO3)C1=O (stereo unspecified),"inconclusive: 20.6 µM [activator, partial curve]"
19,O=C(Cn1cnc2c(OCc3ccccc3)ncnc21)NCc1ccc2[nH]ccc2c1,"inconclusive: 29.1 µM [inhibitor, single point]"
20,Cc1ccc(NC(=S)NNC(=O)Cn2nc([N+](=O)[O-])cc2C)cc1,inactive
21,COc1ccc(NS(=O)(=O)c2cccc(C(=O)NCC(c3ccco3)N(C)C)c2)cc1 (stereo unspecified),inactive
22,O=C(O)COc1ccc(F)cc1Br,"inconclusive: 16.4 µM [activator, partial curve, poor fit]"
